The data set has as its system iPSC-CMs, iPSC-ECs and HUVECs phenotypes. Description: ToxPi 2.0 integration of POD values and physicochemical descriptors. On the set-up: species or system human. The note with it: for huvec.mtl.18hr ToxPi / huvec.tlps.18hr ToxPi / huvec.tta.18hr ToxPi / huvec.ttl.18hr ToxPi / huvec.cyto.24hr ToxPi / huvec.mito.24hr ToxPi / huvec.mitoint.24hr ToxPi / huvec.nma.24hr ToxPi / huvec.tc.24hrs ToxPi: HUVECs; for huvec.mtl.18hr ToxPi / huvec.tlps.18hr ToxPi / huvec.tta.18hr ToxPi / huvec.ttl.18hr ToxPi / huvec.cyto.24hr ToxPi / huvec.mito.24hr ToxPi / huvec.mitoint.24hr ToxPi / huvec.nma.24hr ToxPi / huvec.tc.24hrs ToxPi / endo.mtl.18hr ToxPi / endo.tlps.18hr ToxPi / endo.tta.18hr ToxPi / endo.ttl.18hr ToxPi / endo.cyto.24hr ToxPi / endo.mito.24hr ToxPi / endo.mitoint.24hr ToxPi / endo.nma.24hr ToxPi / endo.tc.24hrs ToxPi: scaled from POD; for endo.mtl.18hr ToxPi / endo.tlps.18hr ToxPi / endo.tta.18hr ToxPi / endo.ttl.18hr ToxPi: iPSC-EC tube formation; for endo.cyto.24hr ToxPi / endo.mito.24hr ToxPi / endo.mitoint.24hr ToxPi / endo.nma.24hr ToxPi / endo.tc.24hrs ToxPi: iPSC-EC; for ToxPi_Score_Bioactivity: Biological Activity ToxPi, POD values of iPSC-CM, iPSC-EC and HUVEC phenotypes integrated; for ToxPi_Score_ChemBiol: Chemical-Biological Integration ToxPi, in vitro data plus physicochemical descriptors. The gist of the method: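 Phenotypic readouts in iPSC-cardiomyocytes, iPSC-endothelial cells and HUVECs were normalised to 0.5% DMSO vehicle and fitted to a four-parameter logistic model. POD set at one SD cutoff of vehicle means, with 100 μM assigned when no response. PODs and physicochemical descriptors combined in ToxPi 2.0 scores.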

As to `Oc1ccc(-c2cccc(Cl)c2)cc1Cl` [4-OH PCB11], the “huvec.mtl.18hr ToxPi” value was 0.59, the “huvec.tlps.18hr ToxPi” value is 0.20, the “huvec.tta.18hr ToxPi” value is listed as 0.00 and the “huvec.ttl.18hr ToxPi” value was 0.48. The “huvec.cyto.24hr ToxPi” value is 0.44, the “huvec.mito.24hr ToxPi” value is 0.53, the “huvec.mitoint.24hr ToxPi” value is 0.58 and the “huvec.nma.24hr ToxPi” value came to 0.59. The “huvec.tc.24hrs ToxPi” value came out at 0.44, the “endo.mtl.18hr ToxPi” value is listed as 0.18, the “endo.tlps.18hr ToxPi” value is given as 0.10 and the “endo.tta.18hr ToxPi” value is 0.17. Further, the “endo.ttl.18hr ToxPi” value is recorded as 0.17, the “endo.cyto.24hr ToxPi” value is 0.15, the “endo.mito.24hr ToxPi” value was 0.15 and the “endo.mitoint.24hr ToxPi” value is given as 0.28. The “endo.nma.24hr ToxPi” value was found to be 0.41 and the “endo.tc.24hrs ToxPi” value is recorded as 0.08. In addition, where the note is “iPSC-CM”, the “cm.amp.avg.24hrs ToxPi” value amounted to 0.00, the “cm.amp.avg.90min ToxPi” value came out at 0.70, the “cm.amp.cv.24hrs ToxPi” value worked out at 0.66 and the “cm.amp.cv.90min ToxPi” value is 0.35. For the same molecule, under “iPSC-CM”, the “cm.bpm.24hrs ToxPi” value is given as 0.36, the “cm.bpm.90min ToxPi” value is listed as 0.16, the “cm.cam.24hrs ToxPi” value turned out to be 0.33 and the “cm.cam.90min ToxPi” value amounted to 0.53. For the same molecule, where the note is “iPSC-CM”, the “cm.decay.rise.24hrs ToxPi” value was found to be 0.29, the “cm.decay.rise.90min ToxPi” value was 0.52, the “cm.mii.24hrs ToxPi” value came out at 0.22 and the “cm.mii.90min ToxPi” value was determined as 0.42. Further, for the setting “iPSC-CM”, the “cm.mito.24hrs ToxPi” value is 0.55, the “cm.mito.90min ToxPi” value is listed as 0.37, the “cm.spacing.cv.24hrs ToxPi” value was 0.44 and the “cm.spacing.cv.90min ToxPi” value is 0.09. For the same molecule, where the note is “iPSC-CM”, the “cm.tc.24hrs ToxPi” value stood at 0.56 and the “cm.tc.90min ToxPi” value came to 0.42.
`Oc1cc(Cl)c(-c2cc(Cl)ccc2Cl)cc1Cl` [4-OH PCB52]: the “huvec.mtl.18hr ToxPi” value was determined as 0.56, the “huvec.tlps.18hr ToxPi” value was 0.60, the “huvec.tta.18hr ToxPi” value turned out to be 0.13 and the “huvec.ttl.18hr ToxPi” value is 0.07. Further, the “huvec.cyto.24hr ToxPi” value is 0.48, the “huvec.mito.24hr ToxPi” value turned out to be 0.54, the “huvec.mitoint.24hr ToxPi” value is reported as 0.75 and the “huvec.nma.24hr ToxPi” value is reported as 0.00. For the same molecule, the “huvec.tc.24hrs ToxPi” value came out at 0.48, the “endo.mtl.18hr ToxPi” value amounted to 0.25, the “endo.tlps.18hr ToxPi” value is 0.40 and the “endo.tta.18hr ToxPi” value was found to be 0.17. For the same molecule, the “endo.ttl.18hr ToxPi” value came out at 0.17, the “endo.cyto.24hr ToxPi” value turned out to be 0.35, the “endo.mito.24hr ToxPi” value is recorded as 0.35 and the “endo.mitoint.24hr ToxPi” value is reported as 0.11. In addition, the “endo.nma.24hr ToxPi” value is 0.08 and the “endo.tc.24hrs ToxPi” value turned out to be 0.32. For the same molecule, for the setting “90min”, the “cm.amp.avg.90min ToxPi” value was 0.29, the “cm.amp.cv.90min ToxPi” value came out at 0.27, the “cm.bpm.90min ToxPi” value is listed as 1.00 and the “cm.cam.90min ToxPi” value came out at 1.00. For the setting “90min”, the “cm.decay.rise.90min ToxPi” value is on record as 0.20, the “cm.mii.90min ToxPi” value is reported as 0.29, the “cm.mito.90min ToxPi” value is reported as 1.00 and the “cm.spacing.cv.90min ToxPi” value is reported as 0.14. Further, the “cm.tc.90min ToxPi” value (90min) was determined as 1.00. In addition, for the setting “24hrs”, the “cm.amp.avg.24hrs ToxPi” value is 0.19, the “cm.amp.cv.24hrs ToxPi” value is 0.10, the “cm.bpm.24hrs ToxPi” value was determined as 0.45 and the “cm.cam.24hrs ToxPi” value is 0.15. For the setting “24hrs”, the “cm.decay.rise.24hrs ToxPi” value is given as 0.26, the “cm.mii.24hrs ToxPi” value was determined as 0.11, the “cm.mito.24hrs ToxPi” value is reported as 0.22 and the “cm.spacing.cv.24hrs ToxPi” value is 0.35. Besides, the “cm.tc.24hrs ToxPi” value (24hrs) is given as 0.20.
With `Oc1ccc(-c2cccc(Cl)c2)cc1Cl` [4-OH-PCB 11], the ToxPi_Score_Bioactivity is on record as 0.4299 and the ToxPi_Score_ChemBiol was determined as 0.4266.
On to `Oc1cc(Cl)c(-c2cc(Cl)ccc2Cl)cc1Cl` [4-OH-PCB 52], for which the ToxPi_Score_Bioactivity turned out to be 0.4609 and the ToxPi_Score_ChemBiol turned out to be 0.5583.
Regarding `COc1ccc(-c2cccc(Cl)c2)cc1Cl` [4-OMe PCB11], the “huvec.mtl.18hr ToxPi” value is 0.53, the “huvec.tlps.18hr ToxPi” value is on record as 0.26, the “huvec.tta.18hr ToxPi” value turned out to be 0.00 and the “huvec.ttl.18hr ToxPi” value is 0.66. The “huvec.cyto.24hr ToxPi” value is given as 0.27, the “huvec.mito.24hr ToxPi” value came to 0.33, the “huvec.mitoint.24hr ToxPi” value was 0.36 and the “huvec.nma.24hr ToxPi” value stood at 0.35. Also, the “huvec.tc.24hrs ToxPi” value came out at 0.27, the “endo.mtl.18hr ToxPi” value turned out to be 0.00, the “endo.tlps.18hr ToxPi” value stood at 0.20 and the “endo.tta.18hr ToxPi” value is listed as 1.00. For the same molecule, the “endo.ttl.18hr ToxPi” value stood at 1.00, the “endo.cyto.24hr ToxPi” value was 0.00, the “endo.mito.24hr ToxPi” value came out at 0.00 and the “endo.mitoint.24hr ToxPi” value came out at 0.00. The “endo.nma.24hr ToxPi” value turned out to be 0.00 and the “endo.tc.24hrs ToxPi” value is 0.00. Moreover, under “iPSC-CM”, the “cm.amp.avg.24hrs ToxPi” value came to 0.15, the “cm.amp.avg.90min ToxPi” value is on record as 0.65, the “cm.amp.cv.24hrs ToxPi” value came to 0.06 and the “cm.amp.cv.90min ToxPi” value stood at 0.25. Besides, under “iPSC-CM”, the “cm.bpm.24hrs ToxPi” value is on record as 0.44, the “cm.bpm.90min ToxPi” value is listed as 0.48, the “cm.cam.24hrs ToxPi” value is on record as 0.13 and the “cm.cam.90min ToxPi” value came to 0.45. Under “iPSC-CM”, the “cm.decay.rise.24hrs ToxPi” value is 0.25, the “cm.decay.rise.90min ToxPi” value is 0.53, the “cm.mii.24hrs ToxPi” value is recorded as 0.59 and the “cm.mii.90min ToxPi” value was determined as 0.18. Under “iPSC-CM”, the “cm.mito.24hrs ToxPi” value was found to be 0.25, the “cm.mito.90min ToxPi” value is 0.50, the “cm.spacing.cv.24hrs ToxPi” value is 0.18 and the “cm.spacing.cv.90min ToxPi” value stood at 0.14. Further, for the setting “iPSC-CM”, the “cm.tc.24hrs ToxPi” value is listed as 0.25 and the “cm.tc.90min ToxPi” value is given as 0.51.

Values taken from article PMC7377239, “Cardiovascular Effects of Polychlorinated Biphenyls and Their Major Metabolites” (Environmental Health Perspectives, 2020).
